In the supplement of paper PMC6445147:
Values scatter widely in this assay.

B1: human tRNA-Pro; a variant is named by its letters at N, in order (parent)
chain: GGCTCGTTGGTCTAGNGGTATGATTCTCGCTTAGGGTGCGAGAGGTCCCGGGTTCNNATCCCGGACGAGCCC

Key:
[1] = variants of: B1; test: tRNA Pol-III promoter activity, log2 (circRNA frequency / plasmid DNA frequency) (log2 ratio); higher = stronger promoter activity; conditions: HEK293T; construct: no Pol-II promoter ((-)CMV library)
[2] = variants of: B1; test: tRNA 3' processing efficiency (processed reads / all reads, maximum-likelihood estimate) (fraction); higher = more efficient 3' processing; conditions: HEK293T; construct: no Pol-II promoter ((-)CMV library)
[3] = variants of: B1; test: tRNA 5' processing efficiency (processed reads / all reads, maximum-likelihood estimate) (fraction); higher = more efficient 5' processing; conditions: HEK293T; construct: CMV Pol-II promoter ((+)CMV library, decapped)

| Variant | tRNA Pol-III promoter activity (log2) [1] | tRNA 3' processing efficiency [2] | tRNA 5' processing efficiency [3] |
| --- | --- | --- | --- |
| GGCTCGTTAGTCTAGGGGTATGATTCTCGCTTAGGGTGCGAGAGGTCCCGGGTTCGGATCCCGGACGAGCCC [GGG G9A] | 3.58 | 0.28 | – |
| GGCTCGTTGGTCTAGGGGTTTGATTCTCGCTTAGGGTGCGAGAGGTCCCGGGTTCAGGTCCCGGACGAGCCC [GAG A20T A58G] | 2.06 | 0.35 | – |
| GGCTCGTTGGTCTTGGGGTATGATTCTCGCTTAGGGTGCGAGAGGTCCCGGGTACAAAACCCGGACGAGCCC [GAA A14T T54A T59A] | 4.44 | 0.33 | – |
| GGCTCGTTGGTCTAGGGGTATGATTCTCGCTTAGGGTGCGAGAGGTCCCGGGCTCTATTCCCGGACGAGCCC [GTA T53C A58T] | 4.14 | 0.79 | – |
| GGCTCGTTGGTCTATGGGTATGATTCTCGCTTAGGGTGCGAGAGGTCCCGGGTTCTAGTCCCGGACGAGCCC [GTA G15T A58G] | 3.05 | 0.43 | – |
| GGCTCGTTGGTCTGGGGGTATGATTCTCGCTTAGGGTGCGAGAGGTCCCGGGTTCGATGCCCGGACGAGCCC [GGA A14G A58T T59G] | 5.94 | 0.25 | – |
| GGCTCGTTAGTCTCGGGGTATGATTCTCGCTTAGGGTGCGAGAGGTCCCGGGTTCCAATCCCGGACGAGCCC [GCA G9A A14C] | 4.77 | 0.4 | – |
| GGCTCGTTGGTCTAGGGGAATGATTCTCGCTTAGGGTGCGAGAGGTCCCGGGTTCGTATCCCGGACGAGCCC [GGT T19A] | 3.04 | 0.29 | – |
| GGCTCGTGGGTCTAGGGGTATGATTCTCGCTTAGGGTGCGAGAGGTCCCGGGTTCAAGTCCCGGACGAGCCC [GAA T8G A58G] | 1.34 | 0.07 | 0.2 |
| GGCTCGTTGGTCTCGGGGTTTGATTCTCGCTTAGGGTGCGAGAGGTCCCGGGTTCAGATCCCGGACGAGCCC [GAG A14C A20T] | 3.03 | 0.2 | – |
| GGCTCGTTAGTCTAGGGGTATGATTCTCGCTTAGGGTGCGAGAGGACCCGGGTTCAAATCCCGGACGAGCCC [GAA G9A T46A] | 4.36 | 0.25 | – |
| GGCTCGTTGGTCTCGGGGTTTGATTCTCGCTTAGGGTGCGAGAGGTCCCGGGTTCATATCCCGGACGAGCCC [GAT A14C A20T] | 6.11 | 0.17 | – |
| GGCTCGTTTGTCTAGGGGTATGATTCTCGCTTAGGGTGCGAGAGGTCCCGGGTTCAGGTCCCGGACGAGCCC [GAG G9T A58G] | 0.758 | 0.5 | – |
| GGCTCGTTGGTCTCGGGGTCTGATTCTCGCTTAGGGTGCGAGAGGTCCCGGGTTCAAATCCCGGACGAGCCC [GAA A14C A20C] | 0.187 | 0.25 | 0.03 |
| GGCTCGTTGGTCTGGGGGTATGATTCTCGCTTAGGGTGCGAGAGGTCCCGGGTTCGAACCCCGGACGAGCCC [GGA A14G T59C] | 3.62 | 0.25 | – |
| GGCTCGTTGGTCTAGGGGTTTGATTCTCGCTTAGGGTGCGAGAGGTCCCGGGTTCTAACCCCGGACGAGCCC [GTA A20T T59C] | 4.42 | 0.31 | – |
| GGCTCGTTGGTCTAGCGGTATGATTCTCGCTTAGGGTGCGAGAGGTCCCGGGCTCAATTCCCGGACGAGCCC [CAA T53C A58T] | 3.67 | 0.57 | – |
| GGCTCGTTGGTCTAGGGGTATGATTCTCGCTTAGGGTGCGAGAGGTCCCGGGATCAAACCCCGGACGAGCCC [GAA T53A T59C] | 3.69 | 0.27 | – |

| Variant | tRNA Pol-III promoter activity (log2) [1] | tRNA 3' processing efficiency [2] | tRNA 5' processing efficiency [3] |
| --- | --- | --- | --- |
| GGCTCGTTGGTCTAGGGGCATGATTCTCGCTTAGGGTGCGAGAGGTCCCGGGATCGATTCCCGGACGAGCCC [GGA T19C T53A A58T] | 5.26 | 0.4 | – |
| GGCTCGTTGGTCTGGGGGGATGATTCTCGCTTAGGGTGCGAGAGGTCCCGGGTTCCAATCCCGGACGAGCCC [GCA A14G T19G] | 2.93 | 0.5 | – |
| GGCTCGTTGGTCTAGGTGTATGATTCTCGCTTAGGGTGCGAGAGGTCCCGGGTTCTGATCCCGGACGAGCCC [GTG G17T] | 2.45 | 0.22 | – |
| GGCTCGTTAGTCTAGGGGTATGATTCTCGCTTAGGGTGCGAGAGGTCCCGGGTTTAAATCCCGGACGAGCCC [GAA G9A C55T] | 0.348 | 0.44 | – |
| GGCTCGTGGGTCTACGTGTATGATTCTCGCTTAGGGTGCGAGAGGTCCCGGGTTCATATCCCGGACGAGCCC [GAT T8G G15C G17T] | 5.26 | 0.4 | – |
| GGCTCGTTGGTCTAGGCGAGTGATTCTCGCTTAGGGTGCGAGAGGTCCCGGGTTCTAATCCCGGACGAGCCC [GTA G17C T19A A20G] | 7.1 | 0.44 | – |
| GGCTCGTTAGTCTAGGGGTATGATTCTCGCTTAGGGTGCGAGAGGTCCCGGGTTCAACTCCCGGACGAGCCC [GAA G9A A58C] | -0.433 | 0.25 | – |
| GGCTCGTTGGTCTAGCGGTATGATTCTCGCTTAGGGTGCGAGAGGTCCCGGGTTCAGTTCCCGGACGAGCCC [CAG A58T] | 4.27 | 0.21 | – |
| GGCTCGTTGGTCTCGGGATATGATTCTCGCTTAGGGTGCGAGAGGTCCCGGGTTCGAATCCCGGACGAGCCC [GGA A14C G18A] | 6.53 | 0.75 | – |
| GGCTCGTCGGTCTGGGGGTGTGATTCTCGCTTAGGGTGCGAGAGGTCCCGGGTTCAAATCCCGGACGAGCCC [GAA T8C A14G A20G] | 1.77 | 0.25 | – |
| GGCTCGTTGGTCTAGGGGGATGATTCTCGCTTAGGGTGCGAGAGGTCCCGGGTTCATAACCCGGACGAGCCC [GAT T19G T59A] | 4.75 | 0.57 | – |
| GGCTCGTTGGTCTGCGGGTATGATTCTCGCTTAGGGTGCGAGAGGTCCCGGGTTCCATTCCCGGACGAGCCC [GCA A14G G15C A58T] | 7.25 | 0.5 | – |
| GGCTCGTTGGTCTTGGGGAATGATTCTCGCTTAGGGTGCGAGAGGTCCCGGGTTCAATACCCGGACGAGCCC [GAA A14T T19A A58T T59A] | 5.93 | 0.25 | – |
| GGCTCGTTGGTCTGGGGGTATGATTCTCGCTTAGGGTGCGAGAGGTCCCGGGTTCTTATCCCGGACGAGCCC [GTT A14G] | 1.42 | 0.25 | – |
| GGCTCGTTGGTCTAGTGGTATGATTCTCGCTTAGGGTGCGAGAGGTCCCGGGTTCTAATCCCGGACGAGCCC [TTA] | 2.91 | 0.35 | 0.18 |
| GGCTCGTCGGTCTGGGGGTATGATTCTCGCTTAGGGTGCGAGAGGTCCCGGGTTCATATCCCGGACGAGCCC [GAT T8C A14G] | 2.66 | 0.4 | – |
| GGCTCGTTGGTCTAAGTGTATGATTCTCGCTTAGGGTGCGAGAGGTCCCGGGTTCACATCCCGGACGAGCCC [GAC G15A G17T] | 3.67 | 0.2 | – |
| GGCTCGTTGGTCTAGGGGTATGATTCTCGCTTAGGGTGCGAGAGGTCCCGGGTTCAGAACCCGGACGAGCCC [GAG T59A] | 0.9 | 0.31 | – |

Complete entries from above. Order of values: tRNA Pol-III promoter activity (log2) [1] | tRNA 3' processing efficiency [2] | tRNA 5' processing efficiency [3]
GGCTCGTCGGTCTGGGGGTATGATTCTCGCTTAGGGTGCGAGAGGTCCCGGGTTCATATCCCGGACGAGCCC [GAT T8C A14G] is listed as 2.66 | 0.4 | –
GGCTCGTTGGTCTGGGGGTATGATTCTCGCTTAGGGTGCGAGAGGTCCCGGGTTCTTATCCCGGACGAGCCC [GTT A14G] is listed as 1.42 | 0.25 | –
GGCTCGTTGGTCTAGGGGTATGATTCTCGCTTAGGGTGCGAGAGGTCCCGGGTTCAGAACCCGGACGAGCCC [GAG T59A] is listed as 0.9 | 0.31 | –
